Measurements: publication PMC4094623
Results are given in words; binding and its absence hold for the method and conditions named. In cells and extracts the contact can be indirect. For some assays here: Binding calls can cover weak binding; strength is not graded here. Where a sequence is shown, tags or fusion partners need not be part of it.

Legend:
Experiment in all cases: split reporter; split YFP in rice protoplasts, 5 ug of each plasmid, 24-36 hr after transfection, fluorescence graded +++ to –; the YFPN fusion is written as binder, the YFPC fusion as target
[1] = molecular target: TGAL4 (split YFP fusion) (rice (Nipponbare))
[2] = molecular target: TGAL6 (split YFP fusion) (rice (Nipponbare))
[3] = molecular target: rLG2 (split YFP fusion) (rice (Nipponbare))
[4] = molecular target: TGAL5 (split YFP fusion) (rice (Nipponbare))
[5] = molecular target: NRR (split YFP fusion) (rice (Nipponbare))
[6] = molecular target: rTGA2.3 (split YFP fusion) (rice (Nipponbare))
[7] = molecular target: TGAL11 (split YFP fusion) (rice (Nipponbare))
[8] = molecular target: rTGA2.1 (split YFP fusion) (rice (Nipponbare))
[9] = molecular target: TGAL1 (split YFP fusion) (rice (Nipponbare))
[10] = molecular target: TGAL9 (split YFP fusion) (rice (Nipponbare))
[11] = molecular target: TGAL7 (split YFP fusion) (rice (Nipponbare))
[12] = molecular target: rTGA2.2 (split YFP fusion) (rice (Nipponbare))
[13] = molecular target: RH2 (split YFP fusion) (rice (Nipponbare))
[14] = molecular target: TGAL2 (split YFP fusion) (rice (Nipponbare))

binding [1]: no binding
binding [2]: no binding
binding [3]: no binding
binding [4]: no binding
binding [5]: binds weakly
binding [6]: binds weakly
binding [7]: binds
binding [8]: no binding
binding [9]: binds
binding [10]: no binding
binding [11]: binds weakly
binding [12]: binds weakly
binding [13]: binds weakly
binding [14]: binds
B1: NH2 (split YFP fusion) (protein, UniProt Q0JJ01 1-635)
chain: MPARSAVVVIAMEPSSSITIASSSSYLSNGSSPCSVSLAPPGAGAVAAQAAPVAAGEGGGGGGGGGGGGSSSVEVVSLNRLSANLERLLLDSDLDCSDADVDVADGGPPVPVHRCILAARSTFFYNLFAARGRGGDGAAGGGGGGGGGGGERTGGRPRYKMEELVPGGRVGRDAFLSLLGYLYTGKLRPAPDDVVSCADPMCPHDSCPPAIRFNVEQMYAAWAFKITELISLFQRRLLNFVDKTLVEDVLPILQVAFHSELTPVLEKCIRRIARSNLDNVSLDKELPPEVAVQIKEIRQKSQPNEGDTVISDPVHEKRVRRIHRALDSDDVELVKLLLNESEITLDDANALHYAAAYCDSKVVSELLDLRLANLNLKNSRGYTALHLAAMRREPAIIMCLLNKGAAVSQLTADGQSAMSICRRLTRMKDYNTKMEQGQESNKDRLCIDILDREMIRKPMAVEDSVTSPLLADDLHMKLLYLENRVAFARLFFPAEAKVAMQIAQADTTPEFGIVPAASTSGKLKEVDLNETPVTQNKRLRSRVDALMKTVELGRRYFPNCSQVLDKFLEDDLPDSPDALDLQNGTSDEQNVKRMRFCELKEDVRKAFSKDRADNSMFSILSSSSSSSPPPKVAKK
